According to publication PMC8834437, “Physical Interaction between Embryonic Stem Cell-Expressed Ras (ERas) and Arginase-1 in Quiescent Hepatic Stellate Cells” (Cells, 2022):
Results are given in words; binding and its absence hold for the method and conditions named. A result given as binding can be weak or reduced; the word gives no strength.

Tests used:
[1] = target: GST-ERas G-domain, rat (rat); test: pull-down; GST-fusion proteins immobilized on GSH agarose beads, mixed with purified ARG1, 1 h at 4 °C; both purified
[2] = target: GST-ERas G-domain, human (human); test: as above

binding [1]: binds | binding [2]: binds
B1: purified arginase 1 (ARG1; aa 1-322) (enzyme, UniProt P05089 1-322)
chain: MSAKSRTIGIIGAPFSKGQPRGGVEEGPTVLRKAGLLEKLKEQECDVKDYGDLPFADIPNDSPFQIVKNPRSVGKASEQLAGKVAEVKKNGRISLVLGGDHSLAIGSISGHARVHPDLGVIWVDAHTDINTPLTTTSGNLHGQPVSFLLKELKGKIPDVPGFSWVTPCISAKDIVYIGLRDVDPGEHYILKTLGIKYFSMTEVDRLGIGKVMEETLSYLLGRKKRPIHLSFDVDGLDPSFTPATGTPVVGGLTYREGLYITEEIYKTGLLSGLDIMEVNPSLGKTPEEVTRTVNTAVAITLACFGLAREGNHKPIDYLNPPK
